Measurements published in patent US20040013643A1, “Methods for treatment of multiple sclerosis with statins” (Novlmmune S.A., priority 2000, published 2004).
At least one structure is not confirmed: it was looked up by name or label, or the drawing left a doubt.

What was measured:
CD40 = assay: IFN-γ induced CD40 expression on human vascular endothelial cells (Western blot, FACS); type: cell-based; conditions: ECs; IFN-γ 500 U/ml, 24 hrs
Protocol: Cell isolation and culture. Human vascular endothelial cells (ECs) were isolated from saphenous veins and mammary arteries by collagenase treatment (Worthington Biochemicals), and cultured in dishes coated with gelatin (Difco). Cells were maintained in medium 199 (1 4199; BioWhittaker) supplemented with 100 U/ml penicillin/streptomycin (BioWhittaker), 5% FCS (Gibco), 100 μg/ml heparin (Sigma) and 50 μg/ml ECGF (endothelial cell growth factor; Pel-Freez Biological). […] Culture media and FCS contained less than 40 pg LPS/ml as determined by chromogenic Limulus amoebocyte-assay analysis (QLC1000; BioWhittaker).
Western blot analysis. Cells were harvested in ice-cold RIPA solubilization buffer, and total amounts of protein were determined using a bicinchoninic acid quantification assay (Pierce, Rockford, Ill.). […] All steps were performed at room temperature and in between incubation steps cells were rinsed with PBS/0.1% Tween. lmmunoreactivity was detected using the enhanced chemiluminescence detection method according to the manufacturer's instructions. […] Analysis of quantification of detection was performed using AIDA software.
Flow cytometry. Cells were incubated with FITC-conjugated specific antibody (60 min, […]) and analyzed in a Becton Dickinson FACScan flow cytometer. At least 20.000 viable cells were analyzed per condition. Data were analyzed using […] software (Becton Dickinson). […]

CD40 mediated pathways = assay: Cytokine release (MCP-1, IL-6, IL-8) from endothelial cells activated by CD40L, ELISA; type: cell-based, human; conditions: ECs; ELISA after 24 hrs
Protocol: Cytokines assay. […] Experiments were performed in the presence of polymyxin B (1 μg/ml). Antibody binding was detected by adding substrate (R&D), and absorbance measured at 450 nm using a Dynatech plate reader. The amount of IL-6, IL-8 and MCP-I detected was calculated from a standard curve prepared with the recombinant protein. Samples were assayed in duplicates.
To investigate the functional consequences of inhibition of CD40 expression by statins on Endothelial Cells activation by CD40L, secreted cytokines were analyzed such as Interleukin-6 (IL-6), interleukin-8 (IL-8), macrophages chemoattractant protein-1 (MCP-1).

Structure (SMILES)	IFN-γ induced CD40 expression (CD40)	cytokine secretion (IL-6, IL-8, MCP-1) under resting conditions (CD40 mediated pathways)
CC[C@H](C)C(=O)O[C@H]1C[C@H](O)C=C2C=C[C@H](C)[C@H](CC[C@@H](O)C[C@@H](O)CC(=O)O)[C@H]21 [Pravastatin]	decreased	–
CCC(C)(C)C(=O)O[C@H]1C[C@@H](C)C=C2C=C[C@H](C)[C@H](CC[C@@H]3C[C@@H](O)CC(=O)O3)[C@H]21 [Simvastatin]	–	largely reduces the secretion
